The record followed here is article doi:10.1101/609503.

By UniProt entry, the sequences of proteins in these tests, tags left out. Residues count along the entry.
UniProt P0AFB1, residues 19-294: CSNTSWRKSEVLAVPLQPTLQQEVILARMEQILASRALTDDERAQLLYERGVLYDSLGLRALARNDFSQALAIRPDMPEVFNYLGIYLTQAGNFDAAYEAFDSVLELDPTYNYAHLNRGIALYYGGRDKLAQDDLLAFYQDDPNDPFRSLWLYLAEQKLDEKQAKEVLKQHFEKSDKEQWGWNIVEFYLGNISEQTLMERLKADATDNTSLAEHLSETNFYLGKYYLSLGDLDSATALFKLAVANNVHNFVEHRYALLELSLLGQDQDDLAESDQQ
UniProt P24228, residues 21-477: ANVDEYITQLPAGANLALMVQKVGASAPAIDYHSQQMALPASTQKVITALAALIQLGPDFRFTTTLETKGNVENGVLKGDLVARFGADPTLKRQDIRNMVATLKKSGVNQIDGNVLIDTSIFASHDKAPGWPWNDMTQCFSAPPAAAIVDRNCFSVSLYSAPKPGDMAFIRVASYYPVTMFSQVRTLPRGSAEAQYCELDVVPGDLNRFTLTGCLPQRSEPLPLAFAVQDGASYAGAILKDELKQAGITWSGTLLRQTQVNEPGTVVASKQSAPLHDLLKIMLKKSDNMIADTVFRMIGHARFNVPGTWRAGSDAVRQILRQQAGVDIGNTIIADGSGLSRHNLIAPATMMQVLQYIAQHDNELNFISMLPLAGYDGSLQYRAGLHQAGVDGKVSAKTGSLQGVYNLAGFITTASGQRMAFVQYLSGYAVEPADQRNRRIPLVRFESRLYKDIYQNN

Like-named read-outs stand apart in the source and are kept apart here. No constants are given. Whether binding was seen depends on the method and setting. Some entries that bind do so weakly or less than the wild type. For part of these data: Sequences can lack the tags named with a protein.

Test [1] has as its target T1, PBP1A (E. coli) (UniProt P02918).
T1 sequence (chain, NT647 RED-NHS dye on amines (fl-PBP1A)): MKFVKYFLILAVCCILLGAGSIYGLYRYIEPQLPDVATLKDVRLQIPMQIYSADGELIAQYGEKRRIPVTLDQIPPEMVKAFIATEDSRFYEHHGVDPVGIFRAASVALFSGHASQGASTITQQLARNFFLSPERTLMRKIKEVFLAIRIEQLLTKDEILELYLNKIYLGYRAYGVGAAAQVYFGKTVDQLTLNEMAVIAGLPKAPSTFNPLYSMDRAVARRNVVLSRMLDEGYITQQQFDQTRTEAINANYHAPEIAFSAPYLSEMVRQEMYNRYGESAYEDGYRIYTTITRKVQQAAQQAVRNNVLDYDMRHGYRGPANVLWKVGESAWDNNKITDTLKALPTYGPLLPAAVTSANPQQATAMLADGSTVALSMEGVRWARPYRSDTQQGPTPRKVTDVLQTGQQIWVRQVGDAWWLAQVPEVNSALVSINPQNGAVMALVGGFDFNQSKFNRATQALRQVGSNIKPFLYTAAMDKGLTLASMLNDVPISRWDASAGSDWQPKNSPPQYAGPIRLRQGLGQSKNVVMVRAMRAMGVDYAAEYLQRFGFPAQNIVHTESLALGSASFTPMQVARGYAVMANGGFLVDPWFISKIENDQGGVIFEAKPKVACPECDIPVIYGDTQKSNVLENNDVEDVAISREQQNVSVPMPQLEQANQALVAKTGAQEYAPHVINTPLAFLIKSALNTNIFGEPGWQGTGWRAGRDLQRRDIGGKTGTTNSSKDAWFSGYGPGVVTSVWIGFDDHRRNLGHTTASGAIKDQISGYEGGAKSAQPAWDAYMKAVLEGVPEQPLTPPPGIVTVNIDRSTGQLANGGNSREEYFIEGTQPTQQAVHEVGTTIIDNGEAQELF
Nature of the test: MST.

For test [2], the target named is T1, PBP1A (E. coli). The experiment in a line: MST. This is another data set of the same source.
The target of test [3] is T2, MepS (E. coli) (UniProt P0AFV4).
T2 sequence (chain, NT647 RED-NHS dye on amines where used as the labelled partner (fl-MepS)): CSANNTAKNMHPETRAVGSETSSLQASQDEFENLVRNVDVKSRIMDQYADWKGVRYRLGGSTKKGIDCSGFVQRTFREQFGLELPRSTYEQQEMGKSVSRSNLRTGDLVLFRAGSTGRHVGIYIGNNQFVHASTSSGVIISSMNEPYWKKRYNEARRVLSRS
The experiment in a line: MST.

In test [4] the target is T2, MepS (E. coli). Nature of the test: MST. This is another data set of the same source.
Another test deals with T3, His-Slt (E. coli) (UniProt P0AGC3).
T3 sequence: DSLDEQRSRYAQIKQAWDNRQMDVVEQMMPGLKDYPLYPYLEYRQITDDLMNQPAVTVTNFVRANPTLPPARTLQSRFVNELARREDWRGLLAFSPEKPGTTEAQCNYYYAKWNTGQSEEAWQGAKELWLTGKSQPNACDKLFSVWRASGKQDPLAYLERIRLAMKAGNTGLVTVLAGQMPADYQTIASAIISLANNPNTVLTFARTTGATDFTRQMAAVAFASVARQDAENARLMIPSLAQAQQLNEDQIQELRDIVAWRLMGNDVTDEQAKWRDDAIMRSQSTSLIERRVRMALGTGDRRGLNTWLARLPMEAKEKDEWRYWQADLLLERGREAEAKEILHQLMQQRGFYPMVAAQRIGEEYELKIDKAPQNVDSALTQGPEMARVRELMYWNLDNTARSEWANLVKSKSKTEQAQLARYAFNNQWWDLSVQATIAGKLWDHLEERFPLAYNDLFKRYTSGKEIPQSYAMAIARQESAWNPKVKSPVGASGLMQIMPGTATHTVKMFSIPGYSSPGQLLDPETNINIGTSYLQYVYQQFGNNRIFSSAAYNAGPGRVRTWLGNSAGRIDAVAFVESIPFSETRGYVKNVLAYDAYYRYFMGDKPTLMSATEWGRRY
The experiment in a line: pull-down.

Consider “NlpI (soluble version, residues 19-294) (from UniProt P0AFB1 19-294)”, for which the binding entry with PBP1A (E. coli) [1] is recorded as “no binding”; in the test with PBP1A (E. coli) [2], “no binding (tested: 50 μM)”.

“PBP4 (native) (from UniProt P24228 21-477) (enzyme)”: the binding result with MepS (E. coli) [3] is “no binding (tested: 30 μM)”; with PBP1A (E. coli) [1], “binds”; in the test with MepS (E. coli) [4], “no binding (tested: 50 μM)”.

For the substance “preformed NlpI-PBP4 complex (from UniProt P0AFB1 19-294; P24228 21-477)”, the binding entry in the test with MepS (E. coli) [3] and with PBP1A (E. coli) [1] was “binds” throughout.

In the case of “preformed NlpI-PBP7 complex (from UniProt P0AFB1 19-294; P0AFI5 26-310)”, the binding entry in the test with MepS (E. coli) [3] is “binds”.

In the case of “tagless NlpI (from UniProt P0AFB1 19-294)”, the binding result in the test with His-Slt (E. coli) was “no binding (tested: 1 or 2 μM)”.
